The results in this text go back to paper PMC4202153.

Chains of the proteins cited; added tags and fusions are not shown.
UniProt Q13547: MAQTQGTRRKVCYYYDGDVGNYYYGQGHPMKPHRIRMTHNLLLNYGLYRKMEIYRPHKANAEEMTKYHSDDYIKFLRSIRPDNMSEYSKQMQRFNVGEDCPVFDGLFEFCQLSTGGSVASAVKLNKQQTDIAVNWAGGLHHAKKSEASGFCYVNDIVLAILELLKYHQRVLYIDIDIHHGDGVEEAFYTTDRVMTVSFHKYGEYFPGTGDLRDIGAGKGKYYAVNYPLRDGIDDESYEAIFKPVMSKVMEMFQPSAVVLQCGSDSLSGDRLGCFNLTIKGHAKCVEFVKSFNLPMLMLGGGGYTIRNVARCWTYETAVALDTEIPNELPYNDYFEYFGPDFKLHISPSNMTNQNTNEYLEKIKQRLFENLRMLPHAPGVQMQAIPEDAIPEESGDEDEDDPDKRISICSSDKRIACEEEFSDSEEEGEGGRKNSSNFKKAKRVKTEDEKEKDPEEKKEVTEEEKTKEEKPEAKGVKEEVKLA
UniProt Q92769: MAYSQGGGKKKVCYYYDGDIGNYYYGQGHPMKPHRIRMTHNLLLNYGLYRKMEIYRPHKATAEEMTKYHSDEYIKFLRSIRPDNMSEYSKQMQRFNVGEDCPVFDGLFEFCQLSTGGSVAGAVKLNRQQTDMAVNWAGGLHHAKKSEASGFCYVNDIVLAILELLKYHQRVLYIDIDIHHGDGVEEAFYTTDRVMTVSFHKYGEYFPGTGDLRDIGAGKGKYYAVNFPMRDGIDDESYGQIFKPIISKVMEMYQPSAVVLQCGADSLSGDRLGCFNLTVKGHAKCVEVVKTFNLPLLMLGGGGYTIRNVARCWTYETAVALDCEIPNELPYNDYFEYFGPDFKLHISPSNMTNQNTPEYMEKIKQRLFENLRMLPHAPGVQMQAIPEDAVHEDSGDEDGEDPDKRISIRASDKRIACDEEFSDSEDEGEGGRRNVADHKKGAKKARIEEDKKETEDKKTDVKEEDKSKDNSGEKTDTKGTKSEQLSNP

The assay deals with T1, TRPS1 (human (endogenous in the paper's human breast cell lines; line not named for this experiment)) (UniProt Q9UHF7).
T1 sequence: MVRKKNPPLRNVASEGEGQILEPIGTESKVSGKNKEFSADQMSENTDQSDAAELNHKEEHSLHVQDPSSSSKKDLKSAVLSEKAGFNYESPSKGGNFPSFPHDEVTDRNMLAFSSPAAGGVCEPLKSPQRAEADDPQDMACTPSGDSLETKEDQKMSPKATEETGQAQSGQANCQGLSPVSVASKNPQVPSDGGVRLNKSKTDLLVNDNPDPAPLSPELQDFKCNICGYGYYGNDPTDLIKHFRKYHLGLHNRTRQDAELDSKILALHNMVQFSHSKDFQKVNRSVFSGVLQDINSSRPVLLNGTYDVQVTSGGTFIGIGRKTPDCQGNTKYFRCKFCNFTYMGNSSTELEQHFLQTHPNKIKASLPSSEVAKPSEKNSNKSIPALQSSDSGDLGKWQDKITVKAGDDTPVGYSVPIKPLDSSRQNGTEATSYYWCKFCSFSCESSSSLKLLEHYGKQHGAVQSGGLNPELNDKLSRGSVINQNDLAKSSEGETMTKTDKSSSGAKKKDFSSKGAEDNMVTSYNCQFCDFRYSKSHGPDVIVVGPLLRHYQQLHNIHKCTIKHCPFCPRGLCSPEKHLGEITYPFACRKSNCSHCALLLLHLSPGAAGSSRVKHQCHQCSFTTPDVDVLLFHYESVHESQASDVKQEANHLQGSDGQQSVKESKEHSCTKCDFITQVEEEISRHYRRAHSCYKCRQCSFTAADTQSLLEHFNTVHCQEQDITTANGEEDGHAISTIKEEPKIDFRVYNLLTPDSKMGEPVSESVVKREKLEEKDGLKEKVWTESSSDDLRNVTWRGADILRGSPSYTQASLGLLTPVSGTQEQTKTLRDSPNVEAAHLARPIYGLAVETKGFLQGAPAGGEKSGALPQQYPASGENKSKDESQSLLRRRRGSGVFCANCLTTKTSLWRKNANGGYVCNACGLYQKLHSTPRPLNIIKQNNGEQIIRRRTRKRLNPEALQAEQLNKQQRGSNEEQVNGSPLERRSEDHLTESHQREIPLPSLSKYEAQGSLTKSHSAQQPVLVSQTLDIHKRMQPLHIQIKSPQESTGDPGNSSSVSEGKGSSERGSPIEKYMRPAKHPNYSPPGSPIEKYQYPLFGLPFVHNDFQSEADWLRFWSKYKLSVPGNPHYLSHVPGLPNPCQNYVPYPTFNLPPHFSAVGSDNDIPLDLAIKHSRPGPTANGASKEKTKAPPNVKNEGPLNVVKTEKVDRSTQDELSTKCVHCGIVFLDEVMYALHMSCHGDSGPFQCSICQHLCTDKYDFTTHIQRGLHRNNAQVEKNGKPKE
Put plainly: affinity purification with mass spectrometry; immunoprecipitation with anti-TRPS1 antibody (R&D Systems) against control polyclonal IgG on Dynabeads Protein G; precipitated proteins analysed by MS.

No constants are given. Whether binding was seen depends on the method and setting. Binding seen in cells or lysates may run through a third protein. Here binding means that the protein was enriched with, or labelled near, the bait; the list need not be complete. Where a sequence is shown, tags or fusion partners need not be part of it.

For the substance “HDAC1 (from UniProt Q13547 1-482) (enzyme)”, the binding result is reported as “binds”.

With “HDAC2 (from UniProt Q92769 1-488) (enzyme)”, the binding result is recorded as “binds”.
